Test results from US9855245B2, “Methods for improving lipid profiles using atrasentan” (AbbVie Inc., priority 2013, dated 2018).

What was measured:
[1] = tested on: subjects with type 2 diabetes and nephropathy; experiment: Example 1: Phase 2b randomized, double-blind, placebo-controlled 12-week clinical study
[2] = tested on: subjects with type 2 diabetes and nephropathy; experiment: Example 2: Phase 2b randomized, double-blind, placebo-controlled 12-week study conducted in Japan

CCCCN(CCCC)C(=O)CN1C[C@H](c2ccc3c(c2)OCO3)[C@@H](C(=O)O)[C@@H]1c1ccc(OC)cc1 [Atrasentan, (2R,3R,4S)-4-(1,3-benzodioxol-5-yl)-1-[2-(dibutylamino)-2-oxoethyl]-2-(4-methoxyphenyl)pyrrolidine-3-carboxylic acid]
Glucose, Difference (95% CI) from placebo ([1]; 0.75 mg/day): −8.8 (−49.85, 32.26) mg/dL | Glucose, Final On-Treatment Visit Mean (SD) ([1]; 0.75 mg/day): 157.9 (76.55) mg/dL | Glucose, LS Mean Change from Baseline (SE) ([1]; 0.75 mg/day): −4.3 (10.74) mg/dL | Glucose, Difference (95% CI) from placebo ([1]; 1.25 mg/day): −8.2 (−48.64, 32.34) mg/dL | Glucose, Final On-Treatment Visit Mean (SD) ([1]; 1.25 mg/day): 158.5 (72.59) mg/dL | Glucose, LS Mean Change from Baseline (SE) ([1]; 1.25 mg/day): −3.7 (10.29) mg/dL | Glucose, Difference (95% CI) from placebo ([2]; 0.75 mg/day): −3.1 (−36.04, 29.92) mg/dL | Glucose, Final On-Treatment Visit Mean (SD) ([2]; 0.75 mg/day): 132.1 (37.13) mg/dL | Glucose, LS Mean Change from Baseline (SE) ([2]; 0.75 mg/day): −3.3 (10.39) mg/dL | Glucose, Difference (95% CI) from placebo ([2]; 1.25 mg/day): −9.0 (−42.41, 24.48) mg/dL | Glucose, Final On-Treatment Visit Mean (SD) ([2]; 1.25 mg/day): 124.3 (33.10) mg/dL | Glucose, LS Mean Change from Baseline (SE) ([2]; 1.25 mg/day): −9.2 (10.67) mg/dL
